Assay results from PMC2712673.
These are yes or no findings as the source states them, for the method shown. Some entries that bind do so weakly or less than the wild type.

The chains behind the UniProt entries cited, without tags or fusion partners. Residues count along the entry.
UniProt P09234, residues 1-77: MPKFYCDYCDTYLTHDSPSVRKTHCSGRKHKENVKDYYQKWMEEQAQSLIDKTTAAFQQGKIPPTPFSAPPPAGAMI

Biological target: SmD3 (human) (UniProt P62318)
Test: crystal structure; U1 snRNP reconstituted from U1 snRNA and nine recombinant proteins; P1 crystals with four particles in the ASU, hanging drop, 38%-40% 2-methyl-2,4-pentanediol, 4°C; experimental map at 6.5 Å, extended to 5.5 Å by multi-NCS, multi-crystal averaging; chains placed with Se, Zn and Hg anomalous peaks; both purified

binding: binds
Substance: U1-C (from UniProt P09234 1-77)
